Among the data in article PMC6599020 are binding values, retold here.

Protein sequences, listed by entry. Tags and fused reporters are not part of them.
UniProt P11142: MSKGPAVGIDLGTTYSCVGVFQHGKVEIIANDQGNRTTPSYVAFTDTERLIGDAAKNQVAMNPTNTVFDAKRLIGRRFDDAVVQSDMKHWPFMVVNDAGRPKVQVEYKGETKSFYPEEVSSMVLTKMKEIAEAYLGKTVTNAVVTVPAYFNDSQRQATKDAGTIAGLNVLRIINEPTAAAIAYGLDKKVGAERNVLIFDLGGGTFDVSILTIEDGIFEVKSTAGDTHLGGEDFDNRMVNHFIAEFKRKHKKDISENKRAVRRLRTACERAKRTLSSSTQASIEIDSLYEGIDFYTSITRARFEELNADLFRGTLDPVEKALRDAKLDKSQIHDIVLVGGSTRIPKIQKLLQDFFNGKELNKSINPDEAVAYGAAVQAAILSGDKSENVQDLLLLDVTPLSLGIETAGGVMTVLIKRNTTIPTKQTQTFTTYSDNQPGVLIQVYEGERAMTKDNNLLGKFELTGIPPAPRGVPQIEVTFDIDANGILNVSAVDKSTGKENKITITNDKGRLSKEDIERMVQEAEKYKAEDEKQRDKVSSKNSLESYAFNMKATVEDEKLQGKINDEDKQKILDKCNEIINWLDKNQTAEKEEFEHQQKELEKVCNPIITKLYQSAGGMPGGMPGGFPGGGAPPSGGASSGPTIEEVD

No constants are given. Whether binding was seen depends on the method and setting. Binding seen in cells or lysates may run through a third protein. A yes stands for co-enrichment or nearness to the bait. Other partners may have been found.

In the test the target is 3×-FLAG-ΔNLS-DEDD (cytosolic Death Effector Domain-containing DNA-binding protein with substitution mutations in all three nuclear localization sequences) (human) (UniProt O75618). The test can be described thus: affinity purification with mass spectrometry; anti-FLAG (F1804)-coupled Dynabeads immunoprecipitation of 3×-FLAG-ΔNLS-DEDD from lysate of lentivirally infected cells (Dynabeads Co-IP kit extraction buffer, 4 °C, 1 h); anti-mouse IgG1 beads as control; co-precipitated proteins analysed by mass spectrometry.

Regarding “heat-shock cognate 71 kDa protein (HSC70) (from UniProt P11142 1-646)”, the binding entry was “binds”.
